Reference: PubChem BioAssay AID1347426 (Functional Genomics Laboratory (NCATS/FGL), 2020)
The campaign covered roughly 31,000 sequences. About 1,400 (4.5%) were called active.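 The calls were made as follows: active = median seed-adjusted z-score above 1 or below -1; inactive = the rest.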 The list shows a part of the results.

Assay: Novel Modifiers of Survival Motor Neuron (SMN) Protein: Gene Identification via Genome-wide siRNA Screen;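 also: luminescence tracks full-length SMN protein made from the SMN2 reporter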
Conditions: HEK293T SMN2-luciferase reporter, siRNA knockdown, 72 h; actives lie on both sides
Outline: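 HEK293T cells stably carrying an SMN2 promoter/splicing cassette–luciferase reporter were reverse-transfected with 1 pmol siRNA per well (druggable-genome library, 3 siRNAs per gene) and grown 72 h at 37 °C. Luminescence, normalized to negative-control siRNA and log10-transformed, was scored as MAD.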

Sequence | median seed-adjusted z-score
AGAGCAGUAUUGCAGUCAATT against APBB3 | inactive: -0.299
CGUCGACCAUUCCCAUGAATT against BRUNOL4 | inactive: 0
CCAGCAACAGUAUCGGGAATT against SLC7A4 | inactive: -0.102
CAAGCAAGGGUGUGAGUUUTT against CXCR4 | inactive: -0.347
GGCUUUUGAUAUUAUGAGATT against SMYD3 | inactive: 0.1
CACGCAACUUGGAUCCGGATT against SLC39A5 | inactive: -0.311
GAGUUAUCUUAGUCGGGAATT against MAP4K5 | inactive: -0.309
ACAUAGAUGCUAUCUUUAATT against EIF4H | inactive: 0.0349
CAGUUUCAACUUUAUCAGATT against RNF144B | inactive: 0.642
GAACAAGUACGAGGAUGAATT against KRT79 | inactive: 0.338
GCUCAAUACAGUGCACAAUTT against HIPK1 | inactive: 0.69
GCAUGACUUUGUUCGACGATT against TAOK3 | inactive: -0.594
CUAUGAAAUCGAAAUUGUATT against ZFYVE21 | inactive: -0.186
GGAUACGGGACAAUGAGAATT against KCTD2 | inactive: 0.133
GGAAUAUAAAGAUCGGGAUTT against MTMR14 | inactive: 0.131
GGGUGAUCGAGGACCCAAATT against COL8A1 | inactive: -0.848
GCACCUACAGUGUCUCAUUTT against GPX7 | inactive: -0.971
CAUCCAUUGUGCACCGCUATT against EFEMP2 | inactive: -0.143
CCGGAACUUUGACACGCUATT against ARVCF | inactive: 0.372
GGACUUCACCAAGCAGAAATT against MCM5 | inactive: 0.126
GGACAAUGAGUUGAGUAAUTT against TRMT2A | inactive: -0.588
AGAUCGACCAGAACGUGGATT against APOA4 | inactive: 0.195
GAUAUAUCGUUGUCAAGCATT against NCAM2 | inactive: 0.192

Sequence | median seed-adjusted z-score
GGACGGAUCUCAAUCGAAATT against CPO | inactive: 0.0875
CGACACUUGAUAUGCUAAATT against FOXJ3 | inactive: -0.155
GCGAGUGUCUUGAAGUAUATT against PLAA | inactive: -0.192
GCCUAUUCAUCGGAAGGUATT against SENP2 | inactive: 0
CGGUCCACGCAAUUCUUUATT against FIZ1 | inactive: 0.154
GCCGGGUCUUUUCGACAUUTT against PAQR9 | inactive: 0.116
GUAUGAGGCUUUCAAGGAUTT against XPR1 | inactive: -0.024
AGAACCAGGCAGUAAAGAATT against SLC22A12 | inactive: -0.148
GAUUGACCUCAGUCAUAUATT against PAN3 | inactive: 0.349
CAAUGACCAGUACGAGAAATT against 9-Sep | inactive: -0.0175
CGAUAUGUUCAUUAGAAUUTT against HSPA1B | inactive: 0.302
GGUGGUGAAUCGUUAUCCATT against MARK1 | inactive: 0.341
GCAGUUGGUUUUGCGAUUATT against ITGB1 | inactive: 0
GCCCACGAGUUUUCAACAATT against ZBTB47 | inactive: 0
CCUUCACUGUGCUUACGGATT against PDE1C | inactive: 0.157
AGAUGAGAUCGACUUCUUATT against KRT3 | inactive: 0.399
CCUAAGCCUUUGUAUCCCATT against KCTD6 | inactive: 0.124
GCAAGGCGAUUGAGAAAAATT against GNAO1 | inactive: 0.233
GAAUUGUUUAUCAGGAAUATT against EXOSC6 | inactive: 0.354
GAACAUUGUUUGUAAGGCUTT against SUOX | inactive: -0.0649
GCCUGACAAUGUCCGAAUUTT against LRP2 | inactive: -0.512
GGAAUCGGAUAUAACAUCATT against GBA | inactive: -0.492
CAGCAGUUAUGGACCAGUUTT against AMD1 | inactive: -0.211

Sequence | median seed-adjusted z-score
GCAUCUGAAUGCAAGAAAATT against PIP3-E | inactive: 0.676
AGAGUGGAUUUGUACCAAATT against RAB39B | inactive: 0.485
CCUAAUUACUUGCAUAGAATT against PPP2R1B | inactive: -0.295
GAUGUGAAGUUGGUACAAATT against CNOT6 | inactive: 0.146
CCAACACUGACAUCCUCGATT against MEF2B | inactive: 0.263
GGUACGAAUUUUGCGGUUATT against AP1G1 | inactive: 0.0802
UCCUCACCGUGACCAAUAATT against MKL1 | inactive: -0.138
GGGCCUACUUUACAUCACATT against TXNDC14 | active: -2.39
GGGCCUUCAUGACAACUCATT against FURIN | inactive: 0.0975
GCCUUAAAGACUUACCGAATT against USPL1 | active: -1.87
GCAGAAAAGAACAACUUGUTT against RAB11B | inactive: -0.857
GGAUGGUCAGCGACAGCUATT against ST6GALNAC4 | inactive: -0.39
GACUAGGCCUUUCAACAGATT against ALPK3 | inactive: 0.365
AGAUAAAGCUAAGGAAGAATT against KHDRBS2 | inactive: -0.335
CACCAGAAAUCAUAGACUUTT against GAK | inactive: 0.488
GCUGUUAACUACCACUGUATT against DAZL | inactive: -0.441
CGACUCGGCUCUUCCCUUUTT against DNASE1 | inactive: -0.35
GAAUCGGGCAUUAUGGUAATT against CACNA2D1 | inactive: -0.541
UCCUUUAACUCGACAGUCATT against DRG2 | inactive: -0.175
CAGCAAACCUUUGACCAGATT against U2AF2 | active: 2.14
UCUUCGUGGUGGACAGCAATT against ARF1 | inactive: -0.371
GGUGAGCUCUGCAUGAAUATT against CLPS | inactive: -0.799
GCAGCAGAUUGAGCAGUCATT against PEX5 | inactive: -0.0414

Copied from the results shown (three entries):
Sequence | median seed-adjusted z-score
GGAUGGUCAGCGACAGCUATT against ST6GALNAC4 | inactive: -0.39
GACUAGGCCUUUCAACAGATT against ALPK3 | inactive: 0.365
AGAUAAAGCUAAGGAAGAATT against KHDRBS2 | inactive: -0.335

Taken from above.
Entry of GCCUUAAAGACUUACCGAATT against USPL1 under median seed-adjusted z-score: active: -1.87
Entry of AGAUAAAGCUAAGGAAGAATT against KHDRBS2 under median seed-adjusted z-score: inactive: -0.335
